In the supplement of paper PMC6411743:
± gives the standard deviation of the averaged measurements. This is a selection; strong and weak results do not stand in their true shares.

The chains behind the UniProt entries cited, without tags or fusion partners. Where a name states a change or a piece, a line headed by the entry shows the natural chain unless it says otherwise.
UniProt Q6PL18: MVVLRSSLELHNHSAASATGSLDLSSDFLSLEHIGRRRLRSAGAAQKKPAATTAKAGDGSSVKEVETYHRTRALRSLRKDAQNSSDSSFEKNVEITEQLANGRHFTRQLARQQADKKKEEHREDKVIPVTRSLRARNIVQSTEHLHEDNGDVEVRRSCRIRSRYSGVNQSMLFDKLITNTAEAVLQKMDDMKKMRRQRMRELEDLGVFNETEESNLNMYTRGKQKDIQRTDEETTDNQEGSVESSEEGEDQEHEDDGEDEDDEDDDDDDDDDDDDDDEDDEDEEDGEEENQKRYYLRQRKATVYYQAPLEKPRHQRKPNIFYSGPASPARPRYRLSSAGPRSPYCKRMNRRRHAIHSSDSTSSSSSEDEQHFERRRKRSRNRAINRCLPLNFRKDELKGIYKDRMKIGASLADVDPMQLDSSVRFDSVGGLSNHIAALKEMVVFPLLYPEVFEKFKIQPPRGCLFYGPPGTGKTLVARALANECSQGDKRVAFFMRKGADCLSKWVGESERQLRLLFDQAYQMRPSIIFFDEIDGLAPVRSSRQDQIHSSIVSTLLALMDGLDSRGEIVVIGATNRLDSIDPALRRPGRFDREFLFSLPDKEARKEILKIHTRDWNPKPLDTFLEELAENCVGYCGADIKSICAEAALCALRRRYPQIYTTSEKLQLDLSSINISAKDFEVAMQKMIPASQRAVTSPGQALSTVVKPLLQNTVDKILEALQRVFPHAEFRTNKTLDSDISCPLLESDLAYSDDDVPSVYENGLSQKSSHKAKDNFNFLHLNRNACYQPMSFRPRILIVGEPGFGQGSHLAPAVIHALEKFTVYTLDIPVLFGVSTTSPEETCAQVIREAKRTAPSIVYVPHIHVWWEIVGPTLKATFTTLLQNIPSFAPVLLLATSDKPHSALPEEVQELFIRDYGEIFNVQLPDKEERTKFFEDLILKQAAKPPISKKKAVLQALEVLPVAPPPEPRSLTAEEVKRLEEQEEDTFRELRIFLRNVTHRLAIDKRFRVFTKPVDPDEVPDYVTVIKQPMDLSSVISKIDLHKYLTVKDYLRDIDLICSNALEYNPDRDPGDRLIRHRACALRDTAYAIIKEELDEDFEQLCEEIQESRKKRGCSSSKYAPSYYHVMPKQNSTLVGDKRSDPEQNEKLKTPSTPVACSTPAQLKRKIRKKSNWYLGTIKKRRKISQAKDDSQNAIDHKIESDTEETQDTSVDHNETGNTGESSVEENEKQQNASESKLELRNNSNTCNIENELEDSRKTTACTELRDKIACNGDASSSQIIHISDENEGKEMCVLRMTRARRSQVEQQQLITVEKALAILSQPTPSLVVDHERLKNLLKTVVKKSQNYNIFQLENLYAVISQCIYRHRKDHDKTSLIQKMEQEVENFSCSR
UniProt Q6P2C8: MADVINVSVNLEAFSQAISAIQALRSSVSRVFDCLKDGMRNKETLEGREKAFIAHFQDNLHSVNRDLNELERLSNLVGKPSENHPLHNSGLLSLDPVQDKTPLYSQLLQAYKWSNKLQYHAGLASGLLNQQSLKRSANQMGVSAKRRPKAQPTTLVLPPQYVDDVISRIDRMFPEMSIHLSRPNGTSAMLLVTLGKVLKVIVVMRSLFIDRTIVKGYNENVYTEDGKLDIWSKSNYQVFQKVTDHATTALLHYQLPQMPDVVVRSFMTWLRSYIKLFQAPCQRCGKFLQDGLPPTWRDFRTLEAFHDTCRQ
UniProt Q5W0U4: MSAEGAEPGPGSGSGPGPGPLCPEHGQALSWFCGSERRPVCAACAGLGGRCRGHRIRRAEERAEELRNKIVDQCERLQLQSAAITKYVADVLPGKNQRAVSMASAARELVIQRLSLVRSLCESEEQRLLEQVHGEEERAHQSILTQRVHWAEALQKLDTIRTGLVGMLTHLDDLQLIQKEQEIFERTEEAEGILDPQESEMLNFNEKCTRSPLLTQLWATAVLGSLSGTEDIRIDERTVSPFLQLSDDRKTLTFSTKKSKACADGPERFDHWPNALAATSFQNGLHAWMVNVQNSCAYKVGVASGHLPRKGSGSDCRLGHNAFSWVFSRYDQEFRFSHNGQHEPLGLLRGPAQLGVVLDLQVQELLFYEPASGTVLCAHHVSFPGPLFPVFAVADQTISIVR
UniProt Q6IPR3: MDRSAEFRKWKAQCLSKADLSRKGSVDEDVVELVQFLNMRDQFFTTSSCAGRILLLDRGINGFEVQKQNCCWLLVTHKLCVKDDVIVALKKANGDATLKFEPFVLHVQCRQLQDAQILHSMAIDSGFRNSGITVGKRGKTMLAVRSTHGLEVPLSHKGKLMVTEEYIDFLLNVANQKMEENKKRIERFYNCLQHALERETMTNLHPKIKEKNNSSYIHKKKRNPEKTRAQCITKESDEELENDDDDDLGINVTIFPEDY
UniProt Q709C8: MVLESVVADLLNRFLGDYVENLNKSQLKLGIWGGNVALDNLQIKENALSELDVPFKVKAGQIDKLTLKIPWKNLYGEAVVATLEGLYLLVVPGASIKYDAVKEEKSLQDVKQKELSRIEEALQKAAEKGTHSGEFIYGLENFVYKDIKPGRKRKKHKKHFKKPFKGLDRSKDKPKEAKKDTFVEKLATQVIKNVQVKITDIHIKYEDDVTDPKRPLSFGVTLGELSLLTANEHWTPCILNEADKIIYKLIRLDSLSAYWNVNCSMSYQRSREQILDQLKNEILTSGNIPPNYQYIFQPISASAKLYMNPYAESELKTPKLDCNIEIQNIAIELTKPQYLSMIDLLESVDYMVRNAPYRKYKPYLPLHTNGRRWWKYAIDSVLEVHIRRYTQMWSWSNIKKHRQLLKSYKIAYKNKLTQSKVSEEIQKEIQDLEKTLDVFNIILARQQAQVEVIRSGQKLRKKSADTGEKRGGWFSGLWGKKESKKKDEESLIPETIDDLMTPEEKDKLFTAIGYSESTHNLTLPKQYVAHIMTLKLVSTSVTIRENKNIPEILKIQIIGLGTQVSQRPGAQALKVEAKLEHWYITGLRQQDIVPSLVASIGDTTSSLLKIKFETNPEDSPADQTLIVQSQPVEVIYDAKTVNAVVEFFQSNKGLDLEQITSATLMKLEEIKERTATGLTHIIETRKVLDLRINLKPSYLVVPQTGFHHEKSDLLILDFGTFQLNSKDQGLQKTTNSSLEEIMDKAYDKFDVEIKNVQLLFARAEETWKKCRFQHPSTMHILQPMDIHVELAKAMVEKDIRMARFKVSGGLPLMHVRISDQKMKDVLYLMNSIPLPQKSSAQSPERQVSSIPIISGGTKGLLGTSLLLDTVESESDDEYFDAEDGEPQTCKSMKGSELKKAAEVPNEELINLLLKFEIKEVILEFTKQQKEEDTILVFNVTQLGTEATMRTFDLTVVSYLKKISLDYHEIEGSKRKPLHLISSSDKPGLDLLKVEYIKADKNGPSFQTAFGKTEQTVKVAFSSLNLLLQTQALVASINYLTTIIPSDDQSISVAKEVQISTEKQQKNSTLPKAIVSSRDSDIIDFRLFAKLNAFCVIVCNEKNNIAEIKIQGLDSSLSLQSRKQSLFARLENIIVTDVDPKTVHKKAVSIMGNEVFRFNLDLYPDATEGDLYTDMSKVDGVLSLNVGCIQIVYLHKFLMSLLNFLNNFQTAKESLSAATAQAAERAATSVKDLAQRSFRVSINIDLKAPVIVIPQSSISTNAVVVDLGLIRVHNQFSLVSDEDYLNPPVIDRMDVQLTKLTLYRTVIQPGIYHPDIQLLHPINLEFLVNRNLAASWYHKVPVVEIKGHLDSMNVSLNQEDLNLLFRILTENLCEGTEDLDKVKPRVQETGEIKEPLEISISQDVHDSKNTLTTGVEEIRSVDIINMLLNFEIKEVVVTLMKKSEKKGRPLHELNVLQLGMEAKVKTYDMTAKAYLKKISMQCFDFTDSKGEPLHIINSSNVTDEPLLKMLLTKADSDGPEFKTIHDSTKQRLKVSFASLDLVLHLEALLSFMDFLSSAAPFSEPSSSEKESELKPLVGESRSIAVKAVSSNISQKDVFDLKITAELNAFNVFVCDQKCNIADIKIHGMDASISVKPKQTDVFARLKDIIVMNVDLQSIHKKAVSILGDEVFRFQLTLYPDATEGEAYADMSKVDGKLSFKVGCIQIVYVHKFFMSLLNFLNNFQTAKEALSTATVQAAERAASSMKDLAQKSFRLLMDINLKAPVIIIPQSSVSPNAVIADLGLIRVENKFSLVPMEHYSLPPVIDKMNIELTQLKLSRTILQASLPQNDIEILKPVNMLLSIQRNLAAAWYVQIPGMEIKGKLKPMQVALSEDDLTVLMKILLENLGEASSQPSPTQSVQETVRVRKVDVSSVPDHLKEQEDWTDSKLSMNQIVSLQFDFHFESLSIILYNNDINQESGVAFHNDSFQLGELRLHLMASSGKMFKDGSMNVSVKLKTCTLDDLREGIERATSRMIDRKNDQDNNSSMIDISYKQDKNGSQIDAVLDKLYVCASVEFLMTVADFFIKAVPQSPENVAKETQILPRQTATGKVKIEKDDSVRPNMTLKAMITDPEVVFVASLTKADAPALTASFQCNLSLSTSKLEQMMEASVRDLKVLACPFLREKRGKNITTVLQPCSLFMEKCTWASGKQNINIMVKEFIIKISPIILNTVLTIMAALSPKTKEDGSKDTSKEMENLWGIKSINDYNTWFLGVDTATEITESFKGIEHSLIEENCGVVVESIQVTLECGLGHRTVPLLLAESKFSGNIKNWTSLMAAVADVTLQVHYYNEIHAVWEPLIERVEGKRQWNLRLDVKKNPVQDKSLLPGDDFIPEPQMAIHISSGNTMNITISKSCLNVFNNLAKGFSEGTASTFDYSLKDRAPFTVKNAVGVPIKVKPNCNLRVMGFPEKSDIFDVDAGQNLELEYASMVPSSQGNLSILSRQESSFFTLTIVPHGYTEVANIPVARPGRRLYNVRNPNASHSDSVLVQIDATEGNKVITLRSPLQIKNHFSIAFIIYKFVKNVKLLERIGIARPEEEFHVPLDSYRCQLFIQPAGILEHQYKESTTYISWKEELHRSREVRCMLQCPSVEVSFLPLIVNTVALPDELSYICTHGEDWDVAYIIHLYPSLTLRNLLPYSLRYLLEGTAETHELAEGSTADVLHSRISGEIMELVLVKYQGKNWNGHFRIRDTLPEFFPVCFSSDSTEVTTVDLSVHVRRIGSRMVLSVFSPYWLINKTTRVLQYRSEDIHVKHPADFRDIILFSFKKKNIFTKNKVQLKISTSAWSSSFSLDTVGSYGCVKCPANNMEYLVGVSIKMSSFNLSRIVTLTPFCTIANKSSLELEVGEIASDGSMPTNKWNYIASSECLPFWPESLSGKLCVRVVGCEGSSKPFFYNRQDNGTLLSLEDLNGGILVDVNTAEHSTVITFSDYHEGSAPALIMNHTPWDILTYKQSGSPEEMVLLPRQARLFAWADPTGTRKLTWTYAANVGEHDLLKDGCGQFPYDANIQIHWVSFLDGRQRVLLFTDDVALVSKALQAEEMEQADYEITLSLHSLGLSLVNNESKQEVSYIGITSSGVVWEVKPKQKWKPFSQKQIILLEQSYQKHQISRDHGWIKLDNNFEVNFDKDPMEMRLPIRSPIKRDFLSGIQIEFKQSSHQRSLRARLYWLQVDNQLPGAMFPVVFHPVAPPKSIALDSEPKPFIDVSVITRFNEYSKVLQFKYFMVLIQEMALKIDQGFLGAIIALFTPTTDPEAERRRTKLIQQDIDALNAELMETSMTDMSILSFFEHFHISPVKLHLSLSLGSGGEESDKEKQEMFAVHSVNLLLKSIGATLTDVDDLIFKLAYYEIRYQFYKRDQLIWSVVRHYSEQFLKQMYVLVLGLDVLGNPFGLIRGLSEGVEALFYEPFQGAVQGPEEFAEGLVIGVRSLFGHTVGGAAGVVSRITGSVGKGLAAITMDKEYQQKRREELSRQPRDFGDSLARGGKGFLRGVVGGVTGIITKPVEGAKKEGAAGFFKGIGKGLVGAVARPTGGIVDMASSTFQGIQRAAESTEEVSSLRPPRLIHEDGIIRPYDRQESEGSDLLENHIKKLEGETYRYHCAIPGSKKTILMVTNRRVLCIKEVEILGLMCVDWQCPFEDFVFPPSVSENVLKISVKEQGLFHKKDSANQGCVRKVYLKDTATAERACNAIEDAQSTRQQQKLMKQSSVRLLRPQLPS
UniProt Q6ZNW5: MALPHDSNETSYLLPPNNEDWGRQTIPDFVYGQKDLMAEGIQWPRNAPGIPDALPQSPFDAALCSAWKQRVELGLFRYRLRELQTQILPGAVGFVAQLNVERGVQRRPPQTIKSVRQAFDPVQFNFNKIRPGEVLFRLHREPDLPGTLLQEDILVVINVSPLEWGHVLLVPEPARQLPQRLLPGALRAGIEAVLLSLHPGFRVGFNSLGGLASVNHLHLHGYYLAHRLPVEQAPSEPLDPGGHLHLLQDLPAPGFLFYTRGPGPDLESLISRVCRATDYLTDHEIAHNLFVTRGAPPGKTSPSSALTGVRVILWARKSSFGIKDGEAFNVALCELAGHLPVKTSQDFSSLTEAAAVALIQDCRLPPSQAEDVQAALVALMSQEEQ

Compound: Nc1ncnc2c1ncn2[C@@H]1O[C@H](COP(=O)(O)OP(=O)(O)NP(=O)(O)O)[C@@H](O)[C@H]1O [adenylyl imidodiphosphate]
Assay: NP40-soluble protein abundance relative to vehicle (solubility fold change) (ratio); higher = more soluble protein in presence of AMP-PNP
Outline: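 Each value is a fold change relative to the detergent-processed vehicle, calculated per replicate from vsn-normalised intensities. Jurkat crude lysate received eight concentrations (0.1 to 10 mM) for 10 min at room temperature and 3 min at 37 °C, then was solubilised in 0.8% NP40 with benzonase (60 min, 4 °C). The ultracentrifuged supernatant was TMT-labelled and run by LC-MS/MS in three independent experiments.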

Target	NP40-soluble protein abundance (concentration: 1mM)	NP40-soluble protein abundance (concentration: 2mM)	NP40-soluble protein abundance (concentration: 4mM)	NP40-soluble protein abundance (concentration: 6mM)	NP40-soluble protein abundance (concentration: 8mM)	NP40-soluble protein abundance (concentration: 10mM)
HEATR3 (UniProt Q7Z4Q2)	1.03 ± 0.02	1.04 ± 0.019	1.05 ± 0.023	1.036 ± 0.0075	1.05 ± 0.017	1.06 ± 0.022
ATAD2 (UniProt Q6PL18)	1.01 ± 0.013	0.992 ± 0.012	1 ± 0.012	1.01 ± 0.035	1.038 ± 0.0078	1.1 ± 0.045
UniProt Q6P2C8 and related entries	0.979 ± 0.028	0.943 ± 0.013	1 ± 0.094	1.05 ± 0.052	1.04 ± 0.067	1.07 ± 0.088
UniProt Q7Z591 and related entries	0.9959 ± 0.0074	1 ± 0.012	0.9898 ± 0.0073	0.9748 ± 0.0074	0.975 ± 0.024	0.978 ± 0.03
UniProt Q6DHV7 and related entries	0.9866 ± 0.0096	0.9803 ± 0.0059	0.9821 ± 0.0043	1.03 ± 0.031	1.0125 ± 0.0007	1.02 ± 0.046
SMYD5 (UniProt Q6GMV2)	0.937 ± 0.035	0.929 ± 0.014	0.97 ± 0.048	1.06 ± 0.097	1.08 ± 0.086	1.08 ± 0.073
UniProt Q5W0U4	0.9866 ± 0.0019	0.945 ± 0.033	0.9665 ± 0.0068	0.959 ± 0.021	0.961 ± 0.024	0.95772 ± 0.00048
UniProt Q7Z2K8 and related entries	0.958 ± 0.012	0.913 ± 0.023	1.12 ± 0.049	1.1 ± 0.038	0.932 ± 0.057	0.932 ± 0.031
UniProt Q7L099-2|Q7L099-3|Q7L099-4	1.03 ± 0.029	1.05 ± 0.064	0.9971 ± 0.0018	0.976 ± 0.017	0.919 ± 0.027	0.965 ± 0.037
TYW3 (UniProt Q6IPR3)	0.998 ± 0.048	0.982 ± 0.032	1 ± 0.081	1 ± 0.042	1.02 ± 0.041	0.998 ± 0.045
ANKRD16 (UniProt Q6P6B7)	0.993 ± 0.024	0.97 ± 0.05	0.991 ± 0.03	0.993 ± 0.025	0.983 ± 0.013	0.976 ± 0.043
UniProt Q709C8 and related entries	0.955 ± 0.016	0.907 ± 0.065	0.931 ± 0.026	0.891 ± 0.025	0.894 ± 0.016	0.864 ± 0.028
UniProt Q5VTB9 and related entries	1.03 ± 0.018	1.03 ± 0.02	1.04 ± 0.037	1.04 ± 0.011	0.995 ± 0.028	1.047 ± 0.0066
UniProt Q66K14-2|Q66K14	0.973 ± 0.029	1 ± 0.036	0.9859 ± 0.0023	0.933 ± 0.011	0.9428 ± 0.0082	0.9259 ± 0.0089
UniProt Q6ZNW5	0.975 ± 0.032	0.932 ± 0.011	0.986 ± 0.025	1.02 ± 0.049	1.01 ± 0.06	1.01 ± 0.058

Exported in CSV form: part of the list above
Target,NP40-soluble protein abundance (concentration: 1mM),NP40-soluble protein abundance (concentration: 2mM),NP40-soluble protein abundance (concentration: 4mM),NP40-soluble protein abundance (concentration: 6mM),NP40-soluble protein abundance (concentration: 8mM),NP40-soluble protein abundance (concentration: 10mM)
UniProt Q6P2C8 and related entries,0.979 ± 0.028,0.943 ± 0.013,1 ± 0.094,1.05 ± 0.052,1.04 ± 0.067,1.07 ± 0.088
UniProt Q7Z591 and related entries,0.9959 ± 0.0074,1 ± 0.012,0.9898 ± 0.0073,0.9748 ± 0.0074,0.975 ± 0.024,0.978 ± 0.03
